{"source": "paper PMC8753592", "about": "“Long-acting capsid inhibitor protects macaques from repeat SHIV challenges” (Nature, 2021)", "assay": "Plasma GS-CA1 pharmacokinetics in the repeat SHIV challenge study", "assay_type": "in vivo, rhesus macaques of Indian origin", "conditions": "individual animals", "protocol": "For the challenge study, 24 outbred rhesus macaques of Indian origin were assigned to the three study groups with even sex and weight distributions. All animals were housed at Alpha Genesis (Yemassee, SC), and all procedures were conducted in compliance with all relevant local, state and federal regulations and were approved by the Alpha Genesis IACUC. […] The injection sites were monitored daily by veterinary staff for 3 days. Beginning in week 1, animals in all three groups were challenged by the intrarectal route with 1 ml of RPMI containing the specified dilution of a 3.62 × 10^3 TCID50 SHIV-SF162P3 stock. At each respective time point, the challenges were performed on the same day, using the same virus stock and inoculation method across the three groups. Whole blood was collected and processed into plasma and PBMCs as necessary to assess routine haematology, clinical chemistry, viral load and serology as well as for bioanalysis of drug levels. The animals were considered to be protected if they remained SHIV negative by plasma PCR assay and seronegative by enzyme immunoassay throughout the 15-week challenge phase and the 9-week follow-up.\nRhesus plasma samples were stored frozen at −80 °C.", "note": "Where “and” joins values, the source holds several entries; their conditions need not be identical. Equal entries are not always repeated. Further values from the same series stand in other lists."}
{"molecule": "CC(C)(C#Cc1ccc(-c2ccc(Cl)c3c(NS(=O)(=O)C4CC4)nn(CC(F)F)c23)c([C@H](Cc2cc(F)cc(F)c2)NC(=O)Cn2nc(C(F)F)c3c2C(F)(F)[C@@H]2C[C@H]32)n1)S(C)(=O)=O", "note": "[GS-CA1]", "values": [{"measurement": "Plasma GS-CA1", "setting": "150 mg/kg single s.c., Week 1", "value": "682.28 nM and 607.28 nM and 3112.4 nM and 2515.88 nM and 761.71 nM and 881.7 nM and 687.72 nM"}, {"measurement": "Plasma GS-CA1", "setting": "150 mg/kg single s.c., Week 2", "value": "785.09 nM and 1097.4 nM and 2107.99 nM and 2027.37 nM and 1058.77 nM and 1219.47 nM and 772.74 nM"}, {"measurement": "Plasma GS-CA1", "setting": "150 mg/kg single s.c., Week 3", "value": "268.8 nM and 333.73 nM and 751.15 nM and 1370.65 nM and 334.48 nM and 208.6 nM and 196.6 nM"}, {"measurement": "Plasma GS-CA1", "setting": "150 mg/kg single s.c., Week 4", "value": "236.71 nM and 181.28 nM and 538.14 nM and 447.86 nM and 225.23 nM and 165.1 nM and 67.54 nM"}, {"measurement": "Plasma GS-CA1", "setting": "150 mg/kg single s.c., Week 5", "value": "86.54 nM and 202.79 nM and 333.46 nM and 449.04 nM and 141.28 nM and 113.5 nM and 95.4 nM"}, {"measurement": "Plasma GS-CA1", "setting": "150 mg/kg single s.c., Week 6", "value": "84.2 nM and 202.04 nM and 164.24 nM and 313.35 nM and 81.89 nM and 78.22 nM and 94.45 nM"}, {"measurement": "Plasma GS-CA1", "setting": "150 mg/kg single s.c., Week 7", "value": "58.28 nM and 136.23 nM and 139.14 nM and 249.92 nM and 68.8 nM and 45.78 nM and 64.92 nM"}, {"measurement": "Plasma GS-CA1", "setting": "150 mg/kg single s.c., Week 8", "value": "152.23 nM and 170.61 nM and 117.65 nM and 160.15 nM and 80.45 nM and 55.63 nM and 81.64 nM"}, {"measurement": "Plasma GS-CA1", "setting": "150 mg/kg single s.c., Week 9", "value": "79.54 nM and 80.39 nM and 134.53 nM and 64.84 nM and 24.54 nM and 26.69 nM"}, {"measurement": "Plasma GS-CA1", "setting": "150 mg/kg single s.c., Week 10", "value": "94.96 nM and 71.29 nM and 143.77 nM and 40.65 nM and 34.92 nM and 30.22 nM"}, {"measurement": "Plasma GS-CA1", "setting": "150 mg/kg single s.c., Week 11", "value": "53.1 nM and 51.13 nM and 71.46 nM and 23.98 nM and 12.35 nM and 18.52 nM"}, {"measurement": "Plasma GS-CA1", "setting": "150 mg/kg single s.c., Week 12", "value": "60.15 nM and 56 nM and 122.09 nM and 35.07 nM and 15.87 nM and 20.76 nM"}, {"measurement": "Plasma GS-CA1", "setting": "150 mg/kg single s.c., Week 13", "value": "69.19 nM and 42.95 nM and 48.2 nM and 62.92 nM and 42.14 nM and 9.51 nM and 14.42 nM"}, {"measurement": "Plasma GS-CA1", "setting": "150 mg/kg single s.c., Week 14", "value": "37.18 nM and 42.14 nM and 41.88 nM and 89.43 nM and 23.2 nM and 7 nM and 12.98 nM"}, {"measurement": "Plasma GS-CA1", "setting": "150 mg/kg single s.c., Week 15", "value": "37.73 nM and 25.05 nM and 38.57 nM and 44.35 nM and 22.39 nM and 4.16 nM and 9.5 nM"}, {"measurement": "Plasma GS-CA1", "setting": "150 mg/kg single s.c., Week 16", "value": "17.69 nM and 12.49 nM and 11.32 nM and 27.66 nM and 12.82 nM and 1.61 nM and 6.13 nM"}, {"measurement": "Plasma GS-CA1", "setting": "150 mg/kg single s.c., Week 17", "value": "20.95 nM and 14.29 nM and 11.67 nM and 20.8 nM and 13.83 nM and 1.22 nM and 5.08 nM"}, {"measurement": "Plasma GS-CA1", "setting": "150 mg/kg single s.c., Week 18", "value": "21.96 nM and 14.77 nM and 17.45 nM and 26.6 nM and 9.89 nM and 1.7 nM and 4.55 nM"}, {"measurement": "Plasma GS-CA1", "setting": "150 mg/kg single s.c., Week 19", "value": "31.14 nM and 16.18 nM and 26.67 nM and 23.66 nM and 14.78 nM and 2.45 nM and 4.87 nM"}, {"measurement": "Plasma GS-CA1", "setting": "150 mg/kg single s.c., Week 20", "value": "23.39 nM and 12.31 nM and 15.93 nM and 26.89 nM and 11.3 nM and 1.35 nM and 3.73 nM"}, {"measurement": "Plasma GS-CA1", "setting": "150 mg/kg single s.c., Week 21", "value": "6.46 nM and 2.59 nM and 3.91 nM and 7.83 nM and 3.15 nM and 1 nM"}, {"measurement": "Plasma GS-CA1", "setting": "150 mg/kg single s.c., Week 22", "value": "6.86 nM and 2.53 nM and 2 nM and 5.84 nM and 1.85 nM and 1 nM"}, {"measurement": "Plasma GS-CA1", "setting": "150 mg/kg single s.c., Week 23", "value": "3.4 nM and 1.2 nM and 1.06 nM and 3.85 nM and 1.48 nM and 1 nM"}, {"measurement": "Plasma GS-CA1", "setting": "150 mg/kg single s.c., Week 24", "value": "4.61 nM and 1.83 nM and 2.28 nM and 3.82 nM and 2.11 nM and 1 nM"}, {"measurement": "Plasma GS-CA1", "setting": "300 mg/kg single s.c., Week 1", "value": "6745.1 nM and 5527.81 nM and 3173.56 nM and 2250.56 nM and 1571.81 nM and 7818.17 nM and 2215.11 nM and 1943.85 nM"}, {"measurement": "Plasma GS-CA1", "setting": "300 mg/kg single s.c., Week 2", "value": "5020.82 nM and 1944.23 nM and 2465.66 nM and 1332.35 nM and 2066.12 nM and 3982.53 nM and 1948.63 nM and 1830.01 nM"}, {"measurement": "Plasma GS-CA1", "setting": "300 mg/kg single s.c., Week 3", "value": "1253.58 nM and 941.93 nM and 1003.46 nM and 894.45 nM and 508.47 nM and 1653.88 nM and 632.49 nM and 741.55 nM"}, {"measurement": "Plasma GS-CA1", "setting": "300 mg/kg single s.c., Week 4", "value": "743.3 nM and 863.19 nM and 663.58 nM and 529.86 nM and 358.71 nM and 724.82 nM and 416.16 nM and 362.21 nM"}, {"measurement": "Plasma GS-CA1", "setting": "300 mg/kg single s.c., Week 5", "value": "556.02 nM and 402.12 nM and 486.51 nM and 395.27 nM and 265.76 nM and 522.82 nM and 267.83 nM and 377.26 nM"}, {"measurement": "Plasma GS-CA1", "setting": "300 mg/kg single s.c., Week 6", "value": "395.92 nM and 369.69 nM and 282.5 nM and 382.44 nM and 161.43 nM and 241.65 nM and 272.87 nM and 350.17 nM"}, {"measurement": "Plasma GS-CA1", "setting": "300 mg/kg single s.c., Week 7", "value": "342.71 nM and 179.75 nM and 260.83 nM and 339.37 nM and 180.41 nM and 131.88 nM and 157.56 nM and 306.88 nM"}, {"measurement": "Plasma GS-CA1", "setting": "300 mg/kg single s.c., Week 8", "value": "287.02 nM and 209.19 nM and 239.58 nM and 319.17 nM and 140.45 nM and 378.49 nM and 155.27 nM and 225.76 nM"}, {"measurement": "Plasma GS-CA1", "setting": "300 mg/kg single s.c., Week 9", "value": "146.99 nM and 126.8 nM and 131.46 nM and 82.73 nM and 87.54 nM and 177.38 nM and 103.79 nM and 122.13 nM"}, {"measurement": "Plasma GS-CA1", "setting": "300 mg/kg single s.c., Week 10", "value": "131 nM and 72.85 nM and 69.86 nM and 54.53 nM and 98.13 nM and 116.65 nM and 106.49 nM and 114.46 nM"}, {"measurement": "Plasma GS-CA1", "setting": "300 mg/kg single s.c., Week 11", "value": "96.21 nM and 31.54 nM and 50.2 nM and 50.03 nM and 60.16 nM and 93.91 nM and 52.24 nM and 72.29 nM"}, {"measurement": "Plasma GS-CA1", "setting": "300 mg/kg single s.c., Week 12", "value": "52.67 nM and 93.47 nM and 85.26 nM and 65.93 nM and 84.23 nM and 74.51 nM and 101.46 nM"}, {"measurement": "Plasma GS-CA1", "setting": "300 mg/kg single s.c., Week 13", "value": "66.2 nM and 32.01 nM and 73.76 nM and 74.07 nM and 43.01 nM and 66.16 nM and 46.75 nM and 76.93 nM"}, {"measurement": "Plasma GS-CA1", "setting": "300 mg/kg single s.c., Week 14", "value": "62.7 nM and 39.51 nM and 82.73 nM and 93.72 nM and 44.99 nM and 84.64 nM and 41.4 nM and 86.17 nM"}, {"measurement": "Plasma GS-CA1", "setting": "300 mg/kg single s.c., Week 15", "value": "31.84 nM and 47.7 nM and 47.41 nM and 46.82 nM and 46.22 nM and 29.22 nM and 49.88 nM"}, {"measurement": "Plasma GS-CA1", "setting": "300 mg/kg single s.c., Week 16", "value": "26.06 nM and 21.9 nM and 27.7 nM and 23.64 nM and 20.26 nM and 34.03 nM and 14.71 nM and 29.78 nM"}, {"measurement": "Plasma GS-CA1", "setting": "300 mg/kg single s.c., Week 17", "value": "22.7 nM and 16.57 nM and 27.76 nM and 26.06 nM and 20.51 nM and 24.33 nM and 12.8 nM and 38.1 nM"}, {"measurement": "Plasma GS-CA1", "setting": "300 mg/kg single s.c., Week 18", "value": "33.14 nM and 13.56 nM and 30.17 nM and 25.35 nM and 35.49 nM and 27.53 nM and 17.91 nM and 47.6 nM"}, {"measurement": "Plasma GS-CA1", "setting": "300 mg/kg single s.c., Week 19", "value": "41.41 nM and 14.88 nM and 69.82 nM and 46.95 nM and 28.95 nM and 44.98 nM and 17.38 nM and 40.91 nM"}, {"measurement": "Plasma GS-CA1", "setting": "300 mg/kg single s.c., Week 20", "value": "25.1 nM and 13.16 nM and 46.61 nM and 34.18 nM and 32.72 nM and 41.86 nM and 12.28 nM and 43.8 nM"}, {"measurement": "Plasma GS-CA1", "setting": "300 mg/kg single s.c., Week 21", "value": "13.1 nM and 4.74 nM and 11.2 nM and 9.27 nM and 9.56 nM and 8.58 nM and 3.77 nM and 14.4 nM"}, {"measurement": "Plasma GS-CA1", "setting": "300 mg/kg single s.c., Week 22", "value": "9.23 nM and 3.77 nM and 10.4 nM and 6.6 nM and 9.38 nM and 8.89 nM and 3.44 nM and 9.91 nM"}, {"measurement": "Plasma GS-CA1", "setting": "300 mg/kg single s.c., Week 23", "value": "7.16 nM and 2.69 nM and 7.58 nM and 5.41 nM and 6.2 nM and 5.6 nM and 1.57 nM and 9.56 nM"}, {"measurement": "Plasma GS-CA1", "setting": "300 mg/kg single s.c., Week 24", "value": "6.55 nM and 2.72 nM and 10.3 nM and 5.77 nM and 6.9 nM and 7.12 nM and 1.32 nM and 10.7 nM"}]}
